Test results as given in the supplement of paper PMC10849652.
Some of the results follow.

By UniProt entry, the sequences of proteins in these tests, tags left out. Where a name states a change or a piece, a line headed by the entry shows the natural chain unless it says otherwise.
UniProt A4D0V7: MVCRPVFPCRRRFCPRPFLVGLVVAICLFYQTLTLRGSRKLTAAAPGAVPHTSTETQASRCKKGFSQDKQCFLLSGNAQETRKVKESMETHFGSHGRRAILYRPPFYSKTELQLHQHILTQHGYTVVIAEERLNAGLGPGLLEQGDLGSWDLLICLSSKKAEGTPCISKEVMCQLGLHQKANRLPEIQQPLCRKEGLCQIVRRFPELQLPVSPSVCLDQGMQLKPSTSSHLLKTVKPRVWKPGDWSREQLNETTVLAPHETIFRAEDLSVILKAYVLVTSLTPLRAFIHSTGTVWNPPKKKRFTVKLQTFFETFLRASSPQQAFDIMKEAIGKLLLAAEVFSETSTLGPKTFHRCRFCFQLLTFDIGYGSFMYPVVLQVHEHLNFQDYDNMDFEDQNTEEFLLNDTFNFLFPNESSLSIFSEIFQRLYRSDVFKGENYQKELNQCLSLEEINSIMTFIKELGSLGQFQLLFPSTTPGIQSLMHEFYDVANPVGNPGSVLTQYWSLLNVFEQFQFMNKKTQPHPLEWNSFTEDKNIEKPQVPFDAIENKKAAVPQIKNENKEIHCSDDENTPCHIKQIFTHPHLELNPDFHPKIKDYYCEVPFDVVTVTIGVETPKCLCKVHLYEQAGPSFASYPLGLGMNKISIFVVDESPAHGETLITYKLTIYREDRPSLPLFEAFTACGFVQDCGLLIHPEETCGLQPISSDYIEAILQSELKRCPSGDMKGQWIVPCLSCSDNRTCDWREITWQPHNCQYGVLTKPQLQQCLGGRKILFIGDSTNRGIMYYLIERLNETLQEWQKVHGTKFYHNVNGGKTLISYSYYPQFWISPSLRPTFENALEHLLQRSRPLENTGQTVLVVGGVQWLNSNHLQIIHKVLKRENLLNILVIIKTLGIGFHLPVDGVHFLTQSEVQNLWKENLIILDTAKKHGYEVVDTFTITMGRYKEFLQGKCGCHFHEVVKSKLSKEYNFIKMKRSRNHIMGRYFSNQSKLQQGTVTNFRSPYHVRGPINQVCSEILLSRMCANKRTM
UniProt Q9P000, whole entry, looked up: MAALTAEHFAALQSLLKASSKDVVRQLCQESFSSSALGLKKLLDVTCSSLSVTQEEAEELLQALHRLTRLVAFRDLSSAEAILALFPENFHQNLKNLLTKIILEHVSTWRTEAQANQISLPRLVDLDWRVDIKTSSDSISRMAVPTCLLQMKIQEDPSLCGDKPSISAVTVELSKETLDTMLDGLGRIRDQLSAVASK
UniProt Q12887: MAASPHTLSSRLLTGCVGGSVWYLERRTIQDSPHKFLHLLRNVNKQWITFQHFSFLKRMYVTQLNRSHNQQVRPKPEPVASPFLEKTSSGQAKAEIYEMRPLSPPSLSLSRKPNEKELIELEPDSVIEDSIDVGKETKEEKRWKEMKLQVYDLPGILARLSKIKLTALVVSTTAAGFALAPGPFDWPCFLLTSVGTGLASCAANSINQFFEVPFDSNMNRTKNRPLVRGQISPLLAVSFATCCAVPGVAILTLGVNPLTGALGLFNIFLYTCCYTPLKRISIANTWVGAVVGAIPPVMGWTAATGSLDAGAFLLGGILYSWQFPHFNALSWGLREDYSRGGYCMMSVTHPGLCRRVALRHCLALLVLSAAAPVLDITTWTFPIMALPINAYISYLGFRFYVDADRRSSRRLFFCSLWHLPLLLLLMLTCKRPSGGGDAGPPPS
UniProt O75718: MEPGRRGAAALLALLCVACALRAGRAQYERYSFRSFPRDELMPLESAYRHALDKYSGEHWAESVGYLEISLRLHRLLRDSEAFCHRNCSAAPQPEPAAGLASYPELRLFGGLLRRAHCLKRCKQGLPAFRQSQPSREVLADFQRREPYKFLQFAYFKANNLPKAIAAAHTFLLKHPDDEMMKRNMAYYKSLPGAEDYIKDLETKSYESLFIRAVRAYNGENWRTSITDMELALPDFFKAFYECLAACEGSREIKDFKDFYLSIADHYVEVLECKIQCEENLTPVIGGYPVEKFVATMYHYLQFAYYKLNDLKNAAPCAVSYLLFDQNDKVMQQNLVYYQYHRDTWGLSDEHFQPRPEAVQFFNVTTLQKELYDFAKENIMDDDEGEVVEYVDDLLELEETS
UniProt Q49B96: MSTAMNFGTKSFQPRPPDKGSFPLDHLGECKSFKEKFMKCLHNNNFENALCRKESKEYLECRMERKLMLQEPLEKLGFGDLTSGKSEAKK
UniProt Q8N752: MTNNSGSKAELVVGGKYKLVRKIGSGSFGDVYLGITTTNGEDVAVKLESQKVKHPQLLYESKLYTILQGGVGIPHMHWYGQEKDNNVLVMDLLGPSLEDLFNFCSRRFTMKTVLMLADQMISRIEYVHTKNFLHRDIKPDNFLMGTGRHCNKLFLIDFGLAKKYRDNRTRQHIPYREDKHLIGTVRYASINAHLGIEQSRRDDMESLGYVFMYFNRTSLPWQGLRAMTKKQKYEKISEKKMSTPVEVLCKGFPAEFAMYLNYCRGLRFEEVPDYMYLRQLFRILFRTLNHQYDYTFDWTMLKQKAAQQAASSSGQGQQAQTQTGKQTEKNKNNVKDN
UniProt Q9BSW2: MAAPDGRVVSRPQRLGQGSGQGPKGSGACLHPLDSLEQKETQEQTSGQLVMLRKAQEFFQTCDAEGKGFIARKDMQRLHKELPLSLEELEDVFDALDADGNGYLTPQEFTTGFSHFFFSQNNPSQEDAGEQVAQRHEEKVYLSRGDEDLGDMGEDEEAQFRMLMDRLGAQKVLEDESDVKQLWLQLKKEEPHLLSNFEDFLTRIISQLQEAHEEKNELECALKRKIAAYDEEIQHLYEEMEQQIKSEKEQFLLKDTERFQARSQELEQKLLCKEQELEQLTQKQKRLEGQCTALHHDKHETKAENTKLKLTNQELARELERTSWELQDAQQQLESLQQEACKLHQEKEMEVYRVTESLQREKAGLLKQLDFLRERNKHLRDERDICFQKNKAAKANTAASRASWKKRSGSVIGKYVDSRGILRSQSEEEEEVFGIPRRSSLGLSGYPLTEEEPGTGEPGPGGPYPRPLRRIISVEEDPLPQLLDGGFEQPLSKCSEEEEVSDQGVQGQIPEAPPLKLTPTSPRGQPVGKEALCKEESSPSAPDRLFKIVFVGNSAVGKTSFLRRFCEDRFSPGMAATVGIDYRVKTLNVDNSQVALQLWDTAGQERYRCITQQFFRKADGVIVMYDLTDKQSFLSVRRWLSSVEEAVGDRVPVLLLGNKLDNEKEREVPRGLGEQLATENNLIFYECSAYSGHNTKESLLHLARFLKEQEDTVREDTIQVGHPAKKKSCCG
UniProt Q9NZJ6: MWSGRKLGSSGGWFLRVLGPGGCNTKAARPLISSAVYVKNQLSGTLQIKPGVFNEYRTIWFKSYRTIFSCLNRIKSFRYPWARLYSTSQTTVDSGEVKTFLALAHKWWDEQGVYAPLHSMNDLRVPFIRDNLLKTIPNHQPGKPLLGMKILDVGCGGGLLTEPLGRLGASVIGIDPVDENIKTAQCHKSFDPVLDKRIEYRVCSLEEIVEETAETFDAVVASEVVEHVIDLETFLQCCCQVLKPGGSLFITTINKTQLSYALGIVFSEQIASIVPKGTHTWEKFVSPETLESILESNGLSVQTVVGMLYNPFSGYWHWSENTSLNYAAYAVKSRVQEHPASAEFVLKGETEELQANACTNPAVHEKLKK
UniProt P61201: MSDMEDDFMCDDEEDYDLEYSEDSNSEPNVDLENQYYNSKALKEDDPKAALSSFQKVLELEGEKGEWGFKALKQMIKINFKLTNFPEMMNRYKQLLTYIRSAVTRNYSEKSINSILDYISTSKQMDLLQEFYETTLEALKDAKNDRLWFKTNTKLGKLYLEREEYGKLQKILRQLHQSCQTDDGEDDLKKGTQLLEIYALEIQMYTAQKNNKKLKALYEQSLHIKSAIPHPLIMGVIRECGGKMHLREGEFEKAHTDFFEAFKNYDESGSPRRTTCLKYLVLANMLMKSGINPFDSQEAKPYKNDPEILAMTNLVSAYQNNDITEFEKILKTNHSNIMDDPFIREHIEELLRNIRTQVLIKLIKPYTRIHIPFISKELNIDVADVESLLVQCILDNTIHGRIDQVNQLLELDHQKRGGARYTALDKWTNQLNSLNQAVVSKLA
UniProt P14406, whole entry, looked up: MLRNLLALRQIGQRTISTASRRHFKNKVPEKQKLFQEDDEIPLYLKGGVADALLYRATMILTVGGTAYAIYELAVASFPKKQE
UniProt Q8N8Q8: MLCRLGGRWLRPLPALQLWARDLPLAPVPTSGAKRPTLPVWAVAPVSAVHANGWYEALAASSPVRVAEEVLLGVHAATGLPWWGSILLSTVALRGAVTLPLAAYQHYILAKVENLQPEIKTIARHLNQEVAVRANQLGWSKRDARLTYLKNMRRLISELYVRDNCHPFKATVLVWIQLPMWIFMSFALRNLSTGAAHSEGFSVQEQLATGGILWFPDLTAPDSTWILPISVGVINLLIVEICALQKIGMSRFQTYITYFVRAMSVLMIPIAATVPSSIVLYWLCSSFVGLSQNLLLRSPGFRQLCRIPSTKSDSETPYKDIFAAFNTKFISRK
UniProt Q92905, whole entry, looked up: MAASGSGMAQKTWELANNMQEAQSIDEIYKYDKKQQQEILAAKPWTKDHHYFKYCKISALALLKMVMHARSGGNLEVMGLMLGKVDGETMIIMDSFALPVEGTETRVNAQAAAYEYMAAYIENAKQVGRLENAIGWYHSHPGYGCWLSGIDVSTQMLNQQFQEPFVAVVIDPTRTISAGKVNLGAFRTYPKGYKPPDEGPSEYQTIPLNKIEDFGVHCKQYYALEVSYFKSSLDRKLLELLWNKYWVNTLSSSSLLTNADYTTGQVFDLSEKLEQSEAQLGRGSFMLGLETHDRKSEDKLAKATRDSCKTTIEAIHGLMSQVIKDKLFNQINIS
UniProt P16220: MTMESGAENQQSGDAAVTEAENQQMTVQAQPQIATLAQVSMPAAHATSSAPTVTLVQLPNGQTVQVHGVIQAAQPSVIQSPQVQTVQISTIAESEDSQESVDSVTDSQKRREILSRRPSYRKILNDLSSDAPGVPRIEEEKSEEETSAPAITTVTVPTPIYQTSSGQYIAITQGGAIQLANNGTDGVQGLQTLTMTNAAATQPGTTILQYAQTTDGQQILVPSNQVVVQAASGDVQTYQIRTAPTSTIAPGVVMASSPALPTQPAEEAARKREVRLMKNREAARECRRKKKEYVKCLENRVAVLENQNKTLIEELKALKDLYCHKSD
UniProt O75131: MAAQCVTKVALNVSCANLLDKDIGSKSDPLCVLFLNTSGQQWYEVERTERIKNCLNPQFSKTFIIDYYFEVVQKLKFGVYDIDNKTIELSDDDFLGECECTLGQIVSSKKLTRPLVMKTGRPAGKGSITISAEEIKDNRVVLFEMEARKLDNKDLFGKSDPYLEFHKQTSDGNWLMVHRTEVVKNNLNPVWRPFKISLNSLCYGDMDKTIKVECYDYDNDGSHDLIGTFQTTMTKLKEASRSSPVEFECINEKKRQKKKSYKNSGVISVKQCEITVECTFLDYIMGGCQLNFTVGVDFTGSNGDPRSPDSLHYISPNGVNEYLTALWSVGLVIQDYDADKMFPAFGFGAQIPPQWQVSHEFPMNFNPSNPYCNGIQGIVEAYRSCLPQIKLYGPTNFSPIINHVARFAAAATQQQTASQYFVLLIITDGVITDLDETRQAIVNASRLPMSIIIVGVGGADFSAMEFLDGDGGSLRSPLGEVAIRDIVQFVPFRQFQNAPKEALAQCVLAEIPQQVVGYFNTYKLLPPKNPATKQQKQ
UniProt Q6UXH1: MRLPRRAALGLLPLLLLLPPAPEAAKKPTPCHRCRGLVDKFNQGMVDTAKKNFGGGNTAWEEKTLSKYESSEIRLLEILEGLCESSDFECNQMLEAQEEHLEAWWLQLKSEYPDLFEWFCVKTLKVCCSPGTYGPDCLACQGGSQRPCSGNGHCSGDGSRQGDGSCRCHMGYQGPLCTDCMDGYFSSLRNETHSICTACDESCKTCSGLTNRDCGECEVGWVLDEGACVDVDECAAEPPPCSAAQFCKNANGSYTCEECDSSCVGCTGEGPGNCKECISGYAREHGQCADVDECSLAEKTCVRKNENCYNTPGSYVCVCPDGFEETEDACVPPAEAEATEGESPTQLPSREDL
UniProt Q9H3G5: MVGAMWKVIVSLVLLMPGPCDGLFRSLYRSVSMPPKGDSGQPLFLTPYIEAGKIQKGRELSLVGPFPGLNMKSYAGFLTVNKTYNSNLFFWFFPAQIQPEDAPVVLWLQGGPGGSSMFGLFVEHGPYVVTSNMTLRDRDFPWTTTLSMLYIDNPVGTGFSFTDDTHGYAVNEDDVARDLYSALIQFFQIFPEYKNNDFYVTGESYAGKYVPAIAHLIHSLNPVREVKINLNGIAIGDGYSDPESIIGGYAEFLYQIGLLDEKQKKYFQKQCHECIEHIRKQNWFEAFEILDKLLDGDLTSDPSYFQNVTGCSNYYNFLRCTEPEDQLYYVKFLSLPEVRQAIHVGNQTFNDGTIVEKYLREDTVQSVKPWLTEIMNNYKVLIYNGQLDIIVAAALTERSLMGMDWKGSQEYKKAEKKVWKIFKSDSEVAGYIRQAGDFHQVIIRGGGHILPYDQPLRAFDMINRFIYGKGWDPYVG
UniProt Q9P021, whole entry, looked up: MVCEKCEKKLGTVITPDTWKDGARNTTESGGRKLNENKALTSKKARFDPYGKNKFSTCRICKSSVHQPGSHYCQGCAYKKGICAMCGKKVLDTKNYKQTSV

Key:
Assay in all cases: log2 fold change, soluble protein after heating vs DMSO (PISA); higher = thermal stabilisation; K562 cells, 10 uM, 30 min; active = over 0.2 and 3.5 SD of the protein, either way, in both replicates (recomputed)
[1] = compound: CC[C@@H]1C(=O)N(C)c2cnc(Nc3ccc(C(=O)NC4CCN(C)CC4)cc3OC)nc2N1C1CCCC1
Method in brief: (§1)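 Values are thermal stability changes relative to control samples and are taken from duplicates. They are stated as log2 fold changes. Before quantification by TMTpro 16plex LC-MS/MS with equalised channel sums, K562 cells at 2×10^6 cells/mL were treated with 10 μM compound for 30 min, heated in aliquots for 3 min across 48°C-58°C, pooled, extracted in PBS with 0.5% NP-40 at 4°C, and centrifuged at 21,000xg for 90 min to give the soluble supernatant.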

volasertib = compound: CC[C@@H]1C(=O)N(C)c2cnc(Nc3ccc(C(=O)N[C@H]4CC[C@H](N5CCN(CC6CC6)CC5)CC4)cc3OC)nc2N1C(C)C [volasertib]
Method in brief: as §1

[2] = compound: CC[C@H](C)N1C=C(C2=C(C=C(C=C21)C3=CN=C(C=C3)N4CCNCC4)C(=O)NCC5=C(C=C(NC5=O)C)C)C
Method in brief: as §1

epoxomicin = compound: CC[C@H](C)[C@@H](C(=O)N[C@@H]([C@@H](C)O)C(=O)N[C@@H](CC(C)C)C(=O)[C@]1(CO1)C)NC(=O)[C@H]([C@@H](C)CC)N(C)C(=O)C [epoxomicin]
Method in brief: as §1

[3] = compound: CCn1c(C(=O)N(C2CC2)C2CC2)cc2c3c(ncn3C)c(Nc3cc(C)n(C)n3)nc21
Method in brief: as §1

[4] = compound: CCn1cc(-c2ccnc3[nH]c(-c4cccc(CN(C)C)c4)cc23)c(-c2ccc(NC(=O)N(C)C)cc2)n1
Method in brief: as §1

[5] = compound: CN(C)CC(=O)Nc1ccc2[nH]c(=O)c3ccccc3c2c1
Method in brief: as §1

rosiglitazone = compound: CN(CCOC1=CC=C(C=C1)C[C@H]2C(=O)NC(=O)S2)C3=CC=CC=N3 (racemic) [rosiglitazone]
Method in brief: as §1

[6] = compound: CN1C2=C(C3=C1C(=O)N(N=C3)CC4=CC(=CC=C4)N)SC(=C2)S(=O)C
Method in brief: as §1

[7] = compound: CN1CCC(CNc2ccc3ncc(-c4cccc(OC(F)(F)F)c4)n3n2)CC1
Method in brief: as §1

Measured: log2 fold change

CORO1A (UniProt P31146)
inactive: [1] -0.017 | volasertib -0.172 | [2] 0.069 | epoxomicin 0.009 | [3] -0.006 | [4] -0.025 | [5] 0.021 | rosiglitazone 0.015 | [6] -0.106 | [7] -0.132

CPED1 (UniProt A4D0V7)
inactive: [1] 0.131 | volasertib 0.022 | [2] -0.027 | epoxomicin 0.145 | [3] -0.063 | [4] 0.089 | [5] -0.017 | rosiglitazone 0.062 | [6] 0.21 | [7] 0.088

COMMD9 (UniProt Q9P000)
inactive: [1] 0.022 | volasertib -0.242 | [2] -0.015 | epoxomicin 0.147 | [3] 0.056 | [4] 0.015 | [5] -0.031 | rosiglitazone -0.011 | [6] -0.123 | [7] 0.05

COX10 (UniProt Q12887)
inactive: [1] 0.08 | volasertib 0.072 | [2] 0.181 | epoxomicin 0.026 | [3] -0.024 | [4] 0.335 | [5] -0.092 | rosiglitazone 0.026 | [6] -0.09 | [7] -0.185

CPOX (UniProt P36551)
inactive: [1] 0.09 | volasertib 0.077 | [2] -0.025 | epoxomicin -0.033 | [3] 0.076 | [4] -0.063 | [5] 0.038 | rosiglitazone 0.009 | [6] -0.086 | [7] -0.011

CRTAP (UniProt O75718)
inactive: [1] 0.026 | volasertib 0.009 | [2] 0.026 | epoxomicin -0.009 | [3] 0.05 | [4] -0.005 | [5] -0.034 | rosiglitazone 0.006 | [6] 0.11 | [7] 0.106

COX19 (UniProt Q49B96)
inactive: [1] 0.021 | volasertib 0.091 | [2] 0.006 | epoxomicin 0.01 | [3] 0.049 | [4] 0.02 | [5] -0.032 | rosiglitazone 0.047 | [6] -0.028 | [7] -0.07

CSNK1A1L (UniProt Q8N752)
inactive: [1] 0.008 | volasertib -0.116 | [2] 0.054 | epoxomicin -0.081 | [3] 0.042 | [4] -0.044 | [5] -0.165 | rosiglitazone -0.001 | [6] 0.031 | [7] 0.168

CRACR2A isoform 2 (UniProt Q9BSW2)
inactive: [1] -0.049 | volasertib -0.057 | [2] 0.058 | epoxomicin 0.137 | [3] -0.013 | [4] 0.014 | [5] -0.011 | rosiglitazone 0.042 | [6] -0.016 | [7] 0.025

CPS1 isoform 3 (UniProt P31327)
inactive: [1] 0.13 | volasertib 0.067 | [2] -0.001 | epoxomicin 0.011 | [3] -0.051 | [4] 0.011 | [5] -0.066 | rosiglitazone 0.069 | [6] -0.014 | [7] -0.043

CROCC (UniProt Q5TZA2)
inactive: [1] 0.005 | volasertib 0.027 | [2] -0.001 | epoxomicin -0.022 | [3] -0.104 | [4] -0.016 | [5] 0.035 | rosiglitazone 0.027 | [6] -0.046 | [7] 0.03

COQ3 (UniProt Q9NZJ6)
inactive: [1] 0.022 | volasertib -0.028 | [2] 0.003 | epoxomicin 0.006 | [3] -0.112 | [4] -0.104 | [5] -0.06 | rosiglitazone 0.077 | [6] -0.017 | [7] -0.154

COPZ1 isoform 4 (UniProt P61923)
inactive: [1] -0.029 | volasertib -0.135 | [2] -0.009 | epoxomicin 0.124 | [3] 0.029 | [4] -0.035 | [5] 0.057 | rosiglitazone -0.02 | [6] -0.062 | [7] 0.071

COX11 (UniProt Q9Y6N1)
inactive: [1] 0.03 | volasertib -0.073 | [2] 0.066 | epoxomicin 0.004 | [3] 0.022 | [4] -0.069 | [5] -0.01 | rosiglitazone 0.051 | [6] 0.006 | [7] 0.019

COQ8A (UniProt Q8NI60)
inactive: [1] -0.063 | volasertib -0.186 | [2] -0.023 | epoxomicin 0.038 | [3] 0.166 | [4] -0.074 | [5] 0.009 | rosiglitazone 0.009 | [6] -0.179 | [7] -0.049

COPS2 (UniProt P61201)
inactive: [1] -0.009 | volasertib -0.084 | [2] 0.028 | epoxomicin 0.033 | [3] 0.028 | [4] -0.019 | [5] 0.002 | rosiglitazone 0.025 | [6] -0.093 | [7] -0.057

COLGALT1 (UniProt Q8NBJ5)
inactive: [1] 0.059 | volasertib 0.057 | [2] 0.009 | epoxomicin -0.022 | [3] 0.024 | [4] 0.071 | [5] -0.028 | rosiglitazone -0.046 | [6] 0.086 | [7] 0.193

COPS7B (UniProt Q9H9Q2)
inactive: [1] -0.043 | volasertib 0.018 | [2] 0.033 | epoxomicin 0.076 | [3] -0.011 | [4] 0.035 | [5] 0.002 | rosiglitazone 0 | [6] -0.089 | [7] -0.007

COX7A2 (UniProt P14406)
inactive: [1] 0.038 | volasertib -0.124 | [2] -0.087 | epoxomicin 0.123 | [3] 0.068 | [4] -0.047 | [5] 0.072 | rosiglitazone -0.032 | [6] 0.059 | [7] 0.091

COX18 (UniProt Q8N8Q8)
inactive: [1] -0.002 | volasertib 0.157 | [2] -0.032 | epoxomicin -0.077 | [3] 0.035 | [4] -0.002 | [5] 0.024 | rosiglitazone -0.038 | [6] 0.006 | [7] -0.126

COPS5 (UniProt Q92905)
inactive: [1] -0.021 | volasertib 0.027 | [2] 0.013 | epoxomicin 0.015 | [3] -0.003 | [4] 0.007 | [5] 0.011 | rosiglitazone 0.015 | [6] -0.119 | [7] -0.019

CREB1 (UniProt P16220)
inactive: [1] 0.008 | volasertib 0.069 | [2] -0.015 | epoxomicin -0.016 | [3] 0.033 | [4] -0.015 | [5] -0.086 | rosiglitazone -0.009 | [6] -0.089 | [7] -0.04

CPNE3 (UniProt O75131)
inactive: [1] -0.005 | volasertib -0.119 | [2] 0.016 | epoxomicin 0.02 | [3] -0.007 | [4] -0.048 | [5] -0.016 | rosiglitazone -0.004 | [6] -0.069 | [7] 0.103

CRELD2 isoform 5 (UniProt Q6UXH1)
inactive: [1] 0.08 | volasertib 0.013 | [2] -0.039 | epoxomicin 0.048 | [3] 0.022 | [4] -0.029 | [5] -0.011 | rosiglitazone -0.017 | [6] 0.005 | [7] 0.129

Pulled one by one from the entries so far, two records:
COMMD9 (UniProt Q9P000)
inactive: [1] 0.022 | volasertib -0.242 | [2] -0.015 | epoxomicin 0.147 | [3] 0.056 | [4] 0.015 | [5] -0.031 | rosiglitazone -0.011 | [6] -0.123 | [7] 0.05

CROCC (UniProt Q5TZA2)
inactive: [1] 0.005 | volasertib 0.027 | [2] -0.001 | epoxomicin -0.022 | [3] -0.104 | [4] -0.016 | [5] 0.035 | rosiglitazone 0.027 | [6] -0.046 | [7] 0.03

(cont.)

CPVL (UniProt Q9H3G5)
inactive: [1] 0.023 | volasertib -0.196 | [2] -0.108 | epoxomicin 0 | [3] -0.03 | [4] -0.011 | [5] -0.091 | rosiglitazone 0.143 | [6] -0.019 | [7] -0.275

COPB2 (UniProt P35606)
inactive: [1] -0.019 | volasertib -0.131 | [2] 0.014 | epoxomicin 0.051 | [3] -0.04 | [4] -0.01 | [5] 0.005 | rosiglitazone 0.019 | [6] -0.028 | [7] 0.008

CRIPT (UniProt Q9P021)
inactive: [1] 0.104 | volasertib 0.112 | [2] 0.011 | epoxomicin 0.086 | [3] 0.024 | [4] 0.068 | [5] 0.029 | rosiglitazone 0.019 | [6] 0.054 | [7] -0.015
